Data published in article PMC6884526.
Numbering of substitutions follows the chain as printed. These are yes or no findings as the source states them, for the method shown. For part of these data: In cells and extracts the contact can be indirect. Some binding calls cover weakened binding; strength is not graded here. Tags and fused reporters may be left off the sequences shown. Values belong to the binder of their own block, whether it stands above or below them.

The chains behind the UniProt entries cited, without tags or fusion partners. Residues count along the entry.
UniProt Q63604, residues 454-821: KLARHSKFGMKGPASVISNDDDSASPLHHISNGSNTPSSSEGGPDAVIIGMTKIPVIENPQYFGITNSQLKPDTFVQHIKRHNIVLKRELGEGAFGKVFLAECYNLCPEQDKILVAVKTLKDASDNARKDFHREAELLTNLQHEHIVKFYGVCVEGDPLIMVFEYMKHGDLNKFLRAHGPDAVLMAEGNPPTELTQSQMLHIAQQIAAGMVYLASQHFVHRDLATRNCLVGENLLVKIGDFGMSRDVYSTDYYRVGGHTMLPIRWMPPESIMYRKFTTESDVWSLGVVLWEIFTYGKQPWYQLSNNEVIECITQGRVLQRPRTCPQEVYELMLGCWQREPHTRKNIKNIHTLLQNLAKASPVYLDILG

Columns and labels:
GST-SIPA1l2-86-99 = target: T1, GST-SIPA1l2-86-99 (UniProt Q5JCS6); assay: pull-down; 10 µg GST-SIPA1l2-86-99 or GST on Glutathione Sepharose, 20 μg MBP-TrkB-454-465, 120 min at 4 °C in PBS; washes with 0.1% Triton X-100; both purified
T1 sequence: PKKDCSKDLACKTL

[1] = target: T2, Intein-tagged SIPA1L2-470-1025 (UniProt Q5JCS6); assay: pull-down; Intein-SIPA1L2 RapGAP construct (470-1025 by the legend) on chitin resin, purified 6xHis-LC3b in the presence of an excess (5×) of purified 6xHis-Snapin, TBS, 4 °C; both purified
T2 sequence: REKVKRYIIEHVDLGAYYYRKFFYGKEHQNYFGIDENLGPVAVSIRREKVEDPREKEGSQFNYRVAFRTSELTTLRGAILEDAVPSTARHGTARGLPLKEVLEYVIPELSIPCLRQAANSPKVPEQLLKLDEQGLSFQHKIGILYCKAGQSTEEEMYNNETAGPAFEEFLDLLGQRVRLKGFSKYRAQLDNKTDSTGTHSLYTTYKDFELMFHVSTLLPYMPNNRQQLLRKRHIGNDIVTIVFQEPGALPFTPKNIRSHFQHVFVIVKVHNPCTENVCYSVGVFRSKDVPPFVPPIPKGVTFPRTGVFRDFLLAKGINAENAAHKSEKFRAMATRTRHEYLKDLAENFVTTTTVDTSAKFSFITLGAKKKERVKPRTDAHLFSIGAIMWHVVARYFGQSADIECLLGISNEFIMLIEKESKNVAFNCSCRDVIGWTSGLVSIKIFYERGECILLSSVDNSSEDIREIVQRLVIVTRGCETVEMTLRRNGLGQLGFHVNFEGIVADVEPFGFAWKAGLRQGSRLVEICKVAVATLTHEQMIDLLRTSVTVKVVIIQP

MBP-TrkB-454-821 [2] = target: MBP-TrkB-454-821 (UniProt Q63604); assay: pull-down; MBP-TrkB fragments on amylose resin, 2 μg of GST-SIPA1L2 fragment overnight at 4 °C; 20 mM Tris pH 7.5, 1 mM DTT, 3 mM EDTA, 100 mM NaCl, 0.3% TritonX-100; both purified
MBP-TrkB-454-821 [3] = target: MBP-TrkB-454-821 (UniProt Q63604); assay: pull-down; competition: MBP-TrkB-454-821 on amylose resin, 1 μg GST-SIPA1L2-1-624, 10× molar excess of TAT-SIPA1L2 or TAT-scr peptide, 4 °C overnight; detection with anti-SIPA1L2; both purified
GFP-Snapin-S50D = target: T3, GFP-Snapin-S50D (UniProt P60192); assay: co-IP; heterologous, HEK293T lysate, lysis buffer without SDS; GFP-Snapin forms precipitated with anti-GFP magnetic beads
T3 sequence: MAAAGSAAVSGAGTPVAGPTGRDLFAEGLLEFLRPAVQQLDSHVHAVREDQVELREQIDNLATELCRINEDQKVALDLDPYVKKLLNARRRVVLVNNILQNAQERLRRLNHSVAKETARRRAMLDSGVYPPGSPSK

GFP-Snapin-S50A = target: T4, GFP-Snapin-S50A (UniProt P60192); assay: as above
T4 sequence: T3 sequence with D50A

GFP-Snapin = target: T5, GFP-Snapin (UniProt P60192); assay: as above
T5 sequence: T3 sequence with D50S

B1: 6xHis-Snapin (protein, UniProt P60192 1-136)
chain: T3 sequence with D50S
binding [1]: binds

B2: GST-ActII-SIPA1L2-1026-1650 (domain or fragment, UniProt Q5JCS6 1026-1650)
chain: HEDGSPRRGCSELCRIPMVEYKLDSEGTPCEYKTPFRRNTTWHRVPTPALQPVSRASPVPGTPDRLQCQPLLQQAQAAIPRSTSFDRKLPDGTRSSPSNQSSSSDPGPGGSGPWRPQVGYDGCPSPLLLEPQGPGSVECDGSGDHEDLMEVGRLPETKWHGPPSKVLSSYKERALQKDGSCKDSPNKLSHIGDKSCSSHSSSNTLSSNTSSNSDDKHFGSGDLMDPELLGLTYIKGASTDSGIDTTPCMPATILGPMHLTGSRSLIHSRAEQWADAADVSGADEDPAKMYTLHGYASAISSSAADGSMGDLSEVSSHSSGSHRSGSPSTHCSKSTGSLDSSKVYIVTHSGGQQVPGAVAKPYHRQGAANKYVIGWKKSEGSPPPEEPEVTECPRIYGEMDIMSTASQHPAVVGDSVPEAQHVLSKDDFLKLMLPDSPLVEEGRRKFSFYGNLSPRRSLYRTLSDESVCSNRRGSSFASSRSSILDQALPNDILFSTTPPYHSTLPPRTHPAPSMGSLRNEFWFSDGSLSDKSKCADPGLMPLPDTAAGLDWSHLVDAARAFEGLDSDEELGLLCHHASYLDQRVASFCTLTDLQHGQELEGAPELSLCVDPTSGKEFMDTPGERS
binding (MBP-TrkB-454-821 [2]): no binding (tested: 2 μg of GST-ActII-SIPA1L2-1026-1650)

B3: GST-ActI-SIPA1L2-1-624 (domain or fragment, UniProt Q5JCS6 1-624)
chain: MSDPRPSQAEKHKLGRAASKFKDPSRAMQSDDYFARKFKAINGSMGPATLNTSSLSEGGGGGGGPANGTPAVPKMGVRARVSEWPPKKDCSKDLACKTLWESRSQSSYESATSIIQNGQNDQVDRQQEEQLDLDFVEAKYTIGDIFVHSPQRGLHPIRQRSNSDITISDIDTEDVLDQHAVNPNTGAALHREYGSTSSIDRQGLSGENVFAMLRGYRIESYDPKVTSSFGFPDFFPCDTAISPSLHAAAQISRGEFVRISGLDYMDGGLLMGRDRDKPFKRRLKSESVETSLFRKLRTVKSEHETFKFTSDLEEGRLDRGIRPWSCQRCFAHYDVQSILFNINEAMATRASVGKRKNITTGASAASQTPVPVGPAGGCESPLGSKEDLNAKENPDADEGDGKSNDLVLSCPYFRNETGGEGDRRIALSRANSASFSSGESCSFESSLSSHCTNAGVSVLEVPRENQPIHREKVKRYIIEHVDLGAYYYRKFFYGKEHQNYFGIDENLGPVAVSIRREKVEDPREKEGSQFNYRVAFRTSELTTLRGAILEDAVPSTARHGTARGLPLKEVLEYVIPELSIPCLRQAANSPKVPEQLLKLDEQGLSFQHKIGILYCKAGQSTEEE
binding (MBP-TrkB-454-821 [2]): binds
binding (MBP-TrkB-454-821 [3]): binds

Next, values leading:

binding (GST-SIPA1l2-86-99): binds
Binder: KLARHSKFGMKG (peptide, UniProt Q63604 454-465) [MBP-TrkB-454-465]

binding (GFP-Snapin-S50D): binds
binding (GFP-Snapin-S50A): binds
B4: SIPA1L2-470-1025-tRFP (domain or fragment, UniProt Q5JCS6 470-1025)
chain: T2 sequence

binding (GFP-Snapin): binds
B5: PDZ-SIPA1L2-tRFP (domain or fragment, UniProt Q5JCS6 951-1027)
chain: EMTLRRNGLGQLGFHVNFEGIVADVEPFGFAWKAGLRQGSRLVEICKVAVATLTHEQMIDLLRTSVTVKVVIIQPHE

binding (MBP-TrkB-454-821 [3]): binds
Binder: PKKDCSKDLACKTL (peptide, UniProt Q5JCS6 86-99) [TAT-SIPA1L2 peptide]
